Record: PubChem BioAssay AID602196 (INSERM, 2012)
Aim: 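Knock-downs that protect lung cancer cells from cisplatin or sensitise them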. Cell system: human A549 lung cancer cells. Knock-down reagent: siRNA pair against human genes. Duration: 48 h transfection before cisplatin; time from cisplatin to read-out not stated. Treatment: cisplatin at a dose killing half of control-siRNA cells; exact dose and duration not given. Measurement: 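Cisplatin cell death as a shift from the 50% death seen with control siRNA; siRNAs toxic or growth-blocking alone scored 0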. Reading the numbers: two-siRNA summed score (-2 to +2): higher = both siRNAs protect from cisplatin killing; -2 means both sensitise. Hit rule: 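Each siRNA scores 0 if harmful alone by LDH or WST-1, otherwise +1 if it reduces and -1 if it increases cisplatin killing; a gene is active when both siRNAs agree (sum +2 or -2)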. Meaning of the calls: active = both siRNAs shift cisplatin killing the same way; inactive = no consistent shift, or siRNA harmful alone.
In all, the deposit lists about 23,000 reagents; shown is an unselected part. 455 of them (2%) were called active. 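Active includes both protection and sensitisation; some change values fall well beyond the stated -50 to +50 range.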 The numbers tell different reagents against one gene apart. Not all columns of the deposit are shown. Reagent sequences are not shown. Not given: the amount of reagent.

For CTBP1-DT (CTBP1 divergent transcript), the values are two-siRNA summed score (-2 to +2) = 1; inactive.
With knock-down of PREB (prolactin regulatory element binding) the results were two-siRNA summed score (-2 to +2) = 0; inactive.
Knock-down of USP19 (ubiquitin specific peptidase 19) resulted in: two-siRNA summed score (-2 to +2) = 0; inactive.
PDE3A (phosphodiesterase 3A) gave two-siRNA summed score (-2 to +2) = 0; inactive.
After knock-down of LINC00312 (long independently transcribed non-coding RNA 312) #1 the results were two-siRNA summed score (-2 to +2) = -1; inactive.
With knock-down of LINC00312 (long independently transcribed non-coding RNA 312) #2, the screen gave two-siRNA summed score (-2 to +2) = -1; inactive.
PRECSIT scored two-siRNA summed score (-2 to +2) = 0; inactive.
Depletion of DAD1 (defender against cell death 1) gave: two-siRNA summed score (-2 to +2) = 0; inactive.
LOC440313 (protein enabled homolog) gave two-siRNA summed score (-2 to +2) = 0; inactive.

Reformatted: results already given.
| gene | reagent | two-siRNA summed score (-2 to +2) | activity call |
| --- | --- | --- | --- |
| CTBP1-DT (CTBP1 divergent transcript) | 1 | 1 | inactive |
| PREB (prolactin regulatory element binding) | 1 | 0 | inactive |

Further records follow.
With knock-down of ABCC5 (ATP binding cassette subfamily C member 5) the results were two-siRNA summed score (-2 to +2) = 0; inactive.
SPRR3 (small proline rich protein 3) scored two-siRNA summed score (-2 to +2) = 0; inactive.
Depletion of RPH3A (rabphilin 3A) resulted in: two-siRNA summed score (-2 to +2) = 1; inactive.
After knock-down of LOC440552 the results were two-siRNA summed score (-2 to +2) = 0; inactive.
Depletion of ACOT11 (acyl-CoA thioesterase 11) resulted in: two-siRNA summed score (-2 to +2) = 0; inactive.
For LOC147975 the deposit lists two-siRNA summed score (-2 to +2) = 0; inactive.
After knock-down of EMP2P1 (EMP2 pseudogene 1), the screen gave two-siRNA summed score (-2 to +2) = 0; inactive.
After knock-down of RSRC1 (arginine and serine rich coiled-coil 1), the record shows two-siRNA summed score (-2 to +2) = 0; inactive.
With knock-down of LOC440542, the screen gave two-siRNA summed score (-2 to +2) = 1; inactive.
CFAP47 (cilia and flagella associated protein 47) #1 gave two-siRNA summed score (-2 to +2) = 0; inactive.
With knock-down of CFAP47 (cilia and flagella associated protein 47) #2 the results were two-siRNA summed score (-2 to +2) = 0; inactive.
With knock-down of TMPRSS12 (transmembrane serine protease 12), the record shows two-siRNA summed score (-2 to +2) = -1; inactive.
